These are yes or no findings as the source states them, for the method shown. Binding can be weak; no strength is given.
Target: T1, Onzin from Mus musculus (MmOnzin) (Mus musculus) (UniProt Q9JI48)
T1 sequence: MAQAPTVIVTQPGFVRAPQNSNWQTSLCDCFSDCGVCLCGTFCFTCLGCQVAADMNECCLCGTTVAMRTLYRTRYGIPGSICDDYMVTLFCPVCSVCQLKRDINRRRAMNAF
Experiment: two-hybrid

binding: binds
Substance: C-terminal region of MLH3 from Mus musculus (MmMlh3) (domain or fragment)
